Measured values from the supplement of paper PMC10849652.
The list shows a part of the results.

Amino acid sequences for entries named in this document (tags omitted). A change or cut given only in a name is not applied to a line headed by its entry.
UniProt O60662: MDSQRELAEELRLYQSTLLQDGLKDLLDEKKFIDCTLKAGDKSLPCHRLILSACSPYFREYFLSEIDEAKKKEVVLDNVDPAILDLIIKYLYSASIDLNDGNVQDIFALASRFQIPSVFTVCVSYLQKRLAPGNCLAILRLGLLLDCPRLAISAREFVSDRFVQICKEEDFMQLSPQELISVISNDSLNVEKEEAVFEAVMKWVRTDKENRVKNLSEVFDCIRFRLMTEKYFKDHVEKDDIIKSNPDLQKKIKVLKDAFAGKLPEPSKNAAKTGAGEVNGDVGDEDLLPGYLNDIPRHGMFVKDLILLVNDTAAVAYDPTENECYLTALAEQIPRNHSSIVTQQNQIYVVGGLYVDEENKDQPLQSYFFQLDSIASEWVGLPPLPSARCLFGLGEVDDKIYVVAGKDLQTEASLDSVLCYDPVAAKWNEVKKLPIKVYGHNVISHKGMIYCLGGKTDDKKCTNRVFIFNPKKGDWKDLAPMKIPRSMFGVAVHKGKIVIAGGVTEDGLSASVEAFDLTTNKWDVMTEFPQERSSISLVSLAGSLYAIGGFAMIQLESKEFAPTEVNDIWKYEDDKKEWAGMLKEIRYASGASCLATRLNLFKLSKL
UniProt Q9BQD3: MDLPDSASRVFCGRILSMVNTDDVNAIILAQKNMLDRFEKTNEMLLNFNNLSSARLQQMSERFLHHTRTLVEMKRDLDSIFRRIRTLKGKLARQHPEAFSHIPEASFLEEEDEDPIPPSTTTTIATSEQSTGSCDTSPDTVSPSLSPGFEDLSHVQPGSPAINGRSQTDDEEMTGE
UniProt Q9H1H9: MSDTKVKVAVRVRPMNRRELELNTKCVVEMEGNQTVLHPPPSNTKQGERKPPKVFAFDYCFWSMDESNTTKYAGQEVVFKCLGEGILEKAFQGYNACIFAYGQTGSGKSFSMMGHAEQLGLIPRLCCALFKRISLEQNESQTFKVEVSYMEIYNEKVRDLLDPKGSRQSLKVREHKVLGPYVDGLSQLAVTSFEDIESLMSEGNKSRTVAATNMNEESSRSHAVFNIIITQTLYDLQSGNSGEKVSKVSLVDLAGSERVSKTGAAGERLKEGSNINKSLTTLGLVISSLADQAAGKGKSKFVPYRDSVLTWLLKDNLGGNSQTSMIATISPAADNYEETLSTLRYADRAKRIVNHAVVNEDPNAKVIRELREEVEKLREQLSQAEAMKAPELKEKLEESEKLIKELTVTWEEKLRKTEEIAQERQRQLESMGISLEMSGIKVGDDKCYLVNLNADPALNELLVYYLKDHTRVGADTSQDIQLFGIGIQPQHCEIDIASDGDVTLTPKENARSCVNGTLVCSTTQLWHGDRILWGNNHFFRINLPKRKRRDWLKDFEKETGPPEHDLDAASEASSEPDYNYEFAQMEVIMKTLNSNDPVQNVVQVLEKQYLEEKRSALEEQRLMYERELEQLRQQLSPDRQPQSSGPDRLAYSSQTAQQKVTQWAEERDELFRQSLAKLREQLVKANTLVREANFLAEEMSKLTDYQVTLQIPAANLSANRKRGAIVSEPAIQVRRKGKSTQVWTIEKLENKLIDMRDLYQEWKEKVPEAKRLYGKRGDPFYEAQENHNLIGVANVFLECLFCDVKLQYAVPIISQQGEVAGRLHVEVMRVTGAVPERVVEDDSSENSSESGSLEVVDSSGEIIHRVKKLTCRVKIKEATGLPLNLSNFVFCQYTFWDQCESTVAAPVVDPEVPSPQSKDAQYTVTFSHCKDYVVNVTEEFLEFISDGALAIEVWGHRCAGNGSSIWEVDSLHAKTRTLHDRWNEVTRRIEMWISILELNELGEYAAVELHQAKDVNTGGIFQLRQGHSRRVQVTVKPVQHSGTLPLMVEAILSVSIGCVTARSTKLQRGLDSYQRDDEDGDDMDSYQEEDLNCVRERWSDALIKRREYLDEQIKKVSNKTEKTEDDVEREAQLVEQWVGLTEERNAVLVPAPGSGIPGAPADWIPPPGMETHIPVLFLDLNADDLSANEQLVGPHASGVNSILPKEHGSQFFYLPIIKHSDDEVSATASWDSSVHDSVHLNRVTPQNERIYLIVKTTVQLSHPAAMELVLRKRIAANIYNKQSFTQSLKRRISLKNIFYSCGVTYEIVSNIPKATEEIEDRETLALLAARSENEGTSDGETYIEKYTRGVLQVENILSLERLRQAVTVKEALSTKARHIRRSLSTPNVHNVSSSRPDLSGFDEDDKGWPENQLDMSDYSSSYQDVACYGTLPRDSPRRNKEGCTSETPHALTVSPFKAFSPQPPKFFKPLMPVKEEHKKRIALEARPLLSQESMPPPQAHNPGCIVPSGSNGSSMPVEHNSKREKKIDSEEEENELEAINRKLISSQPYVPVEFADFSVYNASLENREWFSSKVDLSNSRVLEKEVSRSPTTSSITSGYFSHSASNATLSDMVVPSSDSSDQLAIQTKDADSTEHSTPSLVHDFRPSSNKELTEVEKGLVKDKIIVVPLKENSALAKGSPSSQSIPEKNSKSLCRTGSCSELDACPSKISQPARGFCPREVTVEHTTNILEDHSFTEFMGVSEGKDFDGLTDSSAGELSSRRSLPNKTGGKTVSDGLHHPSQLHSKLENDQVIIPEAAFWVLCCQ
UniProt Q9BW19: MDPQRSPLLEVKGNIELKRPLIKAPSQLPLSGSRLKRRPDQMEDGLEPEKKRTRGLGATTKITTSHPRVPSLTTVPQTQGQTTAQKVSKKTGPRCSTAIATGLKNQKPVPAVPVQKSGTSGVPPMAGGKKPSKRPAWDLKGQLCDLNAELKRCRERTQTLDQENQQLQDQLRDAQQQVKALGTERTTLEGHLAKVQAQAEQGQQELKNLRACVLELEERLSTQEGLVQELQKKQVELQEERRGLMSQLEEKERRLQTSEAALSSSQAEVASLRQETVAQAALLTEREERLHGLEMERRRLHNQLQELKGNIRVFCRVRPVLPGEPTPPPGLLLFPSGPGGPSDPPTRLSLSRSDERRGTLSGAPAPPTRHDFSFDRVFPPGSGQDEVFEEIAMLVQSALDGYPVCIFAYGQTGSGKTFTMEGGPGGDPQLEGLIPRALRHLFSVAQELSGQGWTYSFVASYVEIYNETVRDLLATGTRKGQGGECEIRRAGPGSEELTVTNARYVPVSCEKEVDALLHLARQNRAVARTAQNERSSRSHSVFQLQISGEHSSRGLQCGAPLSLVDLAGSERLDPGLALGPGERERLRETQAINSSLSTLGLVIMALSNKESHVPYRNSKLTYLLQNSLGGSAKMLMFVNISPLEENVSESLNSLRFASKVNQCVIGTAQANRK
UniProt Q9Y2Q5, whole entry, looked up: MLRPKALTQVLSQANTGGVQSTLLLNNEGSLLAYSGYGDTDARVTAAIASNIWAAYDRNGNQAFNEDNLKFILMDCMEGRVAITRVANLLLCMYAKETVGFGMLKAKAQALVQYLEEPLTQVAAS
UniProt P23276: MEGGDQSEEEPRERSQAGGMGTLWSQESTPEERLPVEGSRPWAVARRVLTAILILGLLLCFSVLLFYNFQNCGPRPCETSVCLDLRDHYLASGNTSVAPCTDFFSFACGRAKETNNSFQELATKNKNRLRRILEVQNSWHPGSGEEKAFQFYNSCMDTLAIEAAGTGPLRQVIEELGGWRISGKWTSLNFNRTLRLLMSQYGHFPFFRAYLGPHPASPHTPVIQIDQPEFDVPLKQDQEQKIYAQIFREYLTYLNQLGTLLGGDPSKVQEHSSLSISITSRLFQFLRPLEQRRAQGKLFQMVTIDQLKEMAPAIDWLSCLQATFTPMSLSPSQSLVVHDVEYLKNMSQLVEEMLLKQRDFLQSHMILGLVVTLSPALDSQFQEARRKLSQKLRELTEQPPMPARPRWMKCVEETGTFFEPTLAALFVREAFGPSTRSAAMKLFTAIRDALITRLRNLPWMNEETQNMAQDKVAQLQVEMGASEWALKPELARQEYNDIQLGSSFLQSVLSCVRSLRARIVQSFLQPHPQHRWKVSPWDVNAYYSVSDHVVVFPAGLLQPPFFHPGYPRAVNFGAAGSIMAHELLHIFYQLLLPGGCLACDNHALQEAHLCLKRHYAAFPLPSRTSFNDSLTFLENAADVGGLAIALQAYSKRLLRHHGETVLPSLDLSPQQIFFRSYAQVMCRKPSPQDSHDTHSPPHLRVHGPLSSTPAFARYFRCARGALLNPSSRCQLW
UniProt Q02241: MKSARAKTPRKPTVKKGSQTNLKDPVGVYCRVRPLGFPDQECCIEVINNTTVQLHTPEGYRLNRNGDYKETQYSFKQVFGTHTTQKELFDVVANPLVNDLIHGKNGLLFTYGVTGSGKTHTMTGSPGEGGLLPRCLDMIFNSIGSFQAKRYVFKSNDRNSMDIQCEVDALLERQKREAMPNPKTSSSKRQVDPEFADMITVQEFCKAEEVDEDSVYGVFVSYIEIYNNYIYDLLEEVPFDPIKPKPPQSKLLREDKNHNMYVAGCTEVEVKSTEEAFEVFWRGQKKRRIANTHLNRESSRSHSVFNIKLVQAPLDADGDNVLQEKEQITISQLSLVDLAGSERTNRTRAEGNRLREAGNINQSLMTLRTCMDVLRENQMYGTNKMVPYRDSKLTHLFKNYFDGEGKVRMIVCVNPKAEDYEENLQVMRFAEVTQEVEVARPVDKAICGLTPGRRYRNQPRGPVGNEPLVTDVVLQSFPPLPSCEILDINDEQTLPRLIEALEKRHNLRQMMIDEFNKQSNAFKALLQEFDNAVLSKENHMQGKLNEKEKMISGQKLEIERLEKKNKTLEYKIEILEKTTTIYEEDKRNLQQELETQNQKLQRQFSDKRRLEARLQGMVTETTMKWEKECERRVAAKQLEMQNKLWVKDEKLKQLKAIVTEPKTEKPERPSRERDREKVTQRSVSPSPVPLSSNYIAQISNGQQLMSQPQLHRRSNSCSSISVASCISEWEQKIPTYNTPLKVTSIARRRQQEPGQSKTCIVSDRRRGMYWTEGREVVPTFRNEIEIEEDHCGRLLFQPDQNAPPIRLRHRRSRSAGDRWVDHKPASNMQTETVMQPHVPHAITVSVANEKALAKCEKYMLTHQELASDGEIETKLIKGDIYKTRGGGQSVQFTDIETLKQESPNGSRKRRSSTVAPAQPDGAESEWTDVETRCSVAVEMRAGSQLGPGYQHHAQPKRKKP
UniProt O15550, whole entry, looked up: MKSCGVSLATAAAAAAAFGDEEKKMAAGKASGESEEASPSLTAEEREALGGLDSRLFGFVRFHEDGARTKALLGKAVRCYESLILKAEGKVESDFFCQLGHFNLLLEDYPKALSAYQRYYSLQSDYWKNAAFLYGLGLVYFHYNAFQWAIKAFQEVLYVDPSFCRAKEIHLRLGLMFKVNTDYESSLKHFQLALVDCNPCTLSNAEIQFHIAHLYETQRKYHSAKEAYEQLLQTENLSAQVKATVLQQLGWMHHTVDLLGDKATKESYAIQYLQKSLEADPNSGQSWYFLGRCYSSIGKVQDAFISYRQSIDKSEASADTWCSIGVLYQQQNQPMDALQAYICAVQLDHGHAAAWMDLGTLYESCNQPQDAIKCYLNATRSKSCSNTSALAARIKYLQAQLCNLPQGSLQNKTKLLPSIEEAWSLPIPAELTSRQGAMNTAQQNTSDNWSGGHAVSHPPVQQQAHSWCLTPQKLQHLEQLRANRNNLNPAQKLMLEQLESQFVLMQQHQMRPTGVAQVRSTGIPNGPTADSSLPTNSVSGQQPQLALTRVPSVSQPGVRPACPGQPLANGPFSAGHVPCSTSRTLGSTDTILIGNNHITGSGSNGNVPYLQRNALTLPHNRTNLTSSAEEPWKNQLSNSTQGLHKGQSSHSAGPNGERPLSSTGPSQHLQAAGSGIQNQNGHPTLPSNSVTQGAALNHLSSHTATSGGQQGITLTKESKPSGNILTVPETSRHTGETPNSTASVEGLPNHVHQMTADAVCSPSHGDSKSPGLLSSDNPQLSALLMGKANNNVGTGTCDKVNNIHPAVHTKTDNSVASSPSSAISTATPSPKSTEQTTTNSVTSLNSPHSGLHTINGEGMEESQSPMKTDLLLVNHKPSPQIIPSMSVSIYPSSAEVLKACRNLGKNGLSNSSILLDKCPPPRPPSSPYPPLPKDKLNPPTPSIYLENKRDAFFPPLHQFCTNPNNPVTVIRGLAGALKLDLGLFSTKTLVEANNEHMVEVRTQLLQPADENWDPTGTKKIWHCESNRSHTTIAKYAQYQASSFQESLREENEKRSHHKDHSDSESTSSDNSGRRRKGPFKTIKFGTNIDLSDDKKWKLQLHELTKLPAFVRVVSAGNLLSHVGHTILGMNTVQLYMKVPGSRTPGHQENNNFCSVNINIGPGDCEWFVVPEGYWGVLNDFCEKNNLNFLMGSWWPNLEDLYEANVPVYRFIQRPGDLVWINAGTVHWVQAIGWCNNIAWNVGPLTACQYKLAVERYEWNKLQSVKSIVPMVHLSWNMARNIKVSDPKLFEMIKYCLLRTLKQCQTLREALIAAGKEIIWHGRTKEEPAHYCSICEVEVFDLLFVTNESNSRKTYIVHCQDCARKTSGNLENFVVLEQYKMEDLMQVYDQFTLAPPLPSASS

Key:
Test in all cases: log2 fold change, soluble protein after heating vs DMSO (PISA); higher = thermal stabilisation; K562 lysate, 10 uM; active = over 0.2 and 3.5 SD of the protein, either way, in both replicates (recomputed)
vemurafenib = compound: CCCS(=O)(=O)Nc1ccc(F)c(C(=O)c2c[nH]c3ncc(-c4ccc(Cl)cc4)cc23)c1F [vemurafenib]
Procedure, shortened: (§1)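 Pellets of K562 cells were dounce-homogenised in PBS pH 7.4 with 1 mM MgCl2, and the crude extract was held at 1 mg/mL protein for a 30 min treatment with 10 μM compound. Aliquots were heated for 3 min over 48°C-58°C and pooled before NP-40 was added to 0.5% at 4°C. The supernatant from 21,000xg for 90 min was quantified by TMTpro 16plex LC-MS/MS with channel sums equalised. Values are reported from duplicates as log-two fold change in thermal stability relative to solvent controls.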

[1] = compound: CCCS(=O)(=O)Nc1ccc(F)c(C(=O)c2c[nH]c3ncc(Cl)cc23)c1F
Procedure, shortened: as §1

barasertib = compound: CCN(CCCOc1ccc2c(Nc3cc(CC(=O)Nc4cccc(F)c4)[nH]n3)ncnc2c1)CCOP(=O)(O)O [barasertib]
Procedure, shortened: as §1

[2] = compound: CC[C@@H]1C(=O)N(C)c2cnc(Nc3ccc(C(=O)NC4CCN(C)CC4)cc3OC)nc2N1C1CCCC1
Procedure, shortened: as §1

volasertib = compound: CC[C@@H]1C(=O)N(C)c2cnc(Nc3ccc(C(=O)N[C@H]4CC[C@H](N5CCN(CC6CC6)CC5)CC4)cc3OC)nc2N1C(C)C [volasertib]
Procedure, shortened: as §1

[3] = compound: CCn1c(C(=O)N(C2CC2)C2CC2)cc2c3c(ncn3C)c(Nc3cc(C)n(C)n3)nc21
Procedure, shortened: as §1

[4] = compound: CCn1cc(-c2ccnc3[nH]c(-c4cccc(CN(C)C)c4)cc23)c(-c2ccc(NC(=O)N(C)C)cc2)n1
Procedure, shortened: as §1

[5] = compound: CN1CCC(CNc2ccc3ncc(-c4cccc(OC(F)(F)F)c4)n3n2)CC1
Procedure, shortened: as §1

saracatinib = compound: CN1CCN(CCOc2cc(OC3CCOCC3)c3c(Nc4c(Cl)ccc5c4OCO5)ncnc3c2)CC1 [saracatinib]
Procedure, shortened: as §1

sotrastaurin = compound: CN1CCN(c2nc(C3=C(c4c[nH]c5ccccc45)C(=O)NC3=O)c3ccccc3n2)CC1 [sotrastaurin]
Procedure, shortened: as §1

alvocidib = compound: CN1CC[C@H](c2c(O)cc(O)c3c(=O)cc(-c4ccccc4Cl)oc23)[C@H](O)C1 [alvocidib]
Procedure, shortened: as §1

Tubastatin A = compound: CN1CCc2c(c3ccccc3n2Cc2ccc(C(=O)NO)cc2)C1 [Tubastatin A]
Procedure, shortened: as §1

[6] = compound: CNC(=O)C1=CC=CC=C1NC2=NC(=NC=C2Cl)NC3=C(C=C(C=C3)N4CCOCC4)OC
Procedure, shortened: as §1

defactinib = compound: CNC(=O)c1ccc(Nc2ncc(C(F)(F)F)c(NCc3nccnc3N(C)S(C)(=O)=O)n2)cc1 [defactinib]
Procedure, shortened: as §1

[7] = compound: CNc1nc(-c2ccc3c(N)n[nH]c3c2)cc(N2C[C@@H](C(=O)NC3CCCCC3)CC[C@H]2C)n1
Procedure, shortened: as §1

encorafenib = compound: COC(=O)N[C@@H](C)CNc1nccc(-c2cn(C(C)C)nc2-c2cc(Cl)cc(NS(C)(=O)=O)c2F)n1 [encorafenib]
Procedure, shortened: as §1

[8] = compound: COC(=O)[C@H](CCSC)NC(=O)C1=C(C=C(C=C1)NC[C@H](CS)N)C2=CC=CC=C2
Procedure, shortened: as §1

alisertib = compound: COc1cc(Nc2ncc3c(n2)-c2ccc(Cl)cc2C(c2c(F)cccc2OC)=NC3)ccc1C(=O)O [alisertib]
Procedure, shortened: as §1

[9] = compound: COc1cc2nc(-c3cc(F)ccc3O)nc(N[C@@H]3CNC[C@H]3C(C)(C)O)c2cc1OC
Procedure, shortened: as §1

gefitinib = compound: COc1cc2ncnc(Nc3ccc(F)c(Cl)c3)c2cc1OCCCN1CCOCC1 [gefitinib]
Procedure, shortened: as §1

Measured: log2 fold change

KIAA1324L (UniProt A8MWY0)
inactive: vemurafenib 0.013 | [1] 0.009 | barasertib 0 | [2] 0.086 | volasertib 0.007 | [3] -0.059 | [4] 1.11 | [5] 0.065 | saracatinib -0.025 | sotrastaurin 0.063 | alvocidib 0.018 | Tubastatin A 0.041 | [6] 0.027 | defactinib 0.07 | [7] -0.018 | encorafenib 0.042 | [8] -0.047 | alisertib -0.059 | [9] 0.001 | gefitinib 0.045

KLHL41 (UniProt O60662)
inactive: vemurafenib -0.115 | [1] -0.015 | barasertib 0.06 | [2] -0.085 | volasertib 0.05 | [3] -0.224 | [4] -0.382 | [5] 0.181 | saracatinib 0.105 | sotrastaurin -0.107 | alvocidib -0.221 | Tubastatin A 0.044 | [6] 0.058 | defactinib 0.15 | [7] 0.295 | encorafenib -0.05 | [8] -0.041 | alisertib 0.193 | [9] -0.082 | gefitinib 0.163

KXD1 (UniProt Q9BQD3)
inactive: vemurafenib -0.088 | [1] -0.065 | barasertib 0.003 | [2] -0.008 | volasertib -0.016 | [3] 0.041 | [4] 0.045 | [5] -0.004 | saracatinib 0.045 | sotrastaurin -0.025 | alvocidib 0 | Tubastatin A 0.034 | [6] 0.017 | defactinib 0.027 | [7] 0.012 | encorafenib 0.016 | [8] -0.048 | alisertib -0.075 | [9] 0.038 | gefitinib 0.024

KIF13A isoform 4 (UniProt Q9H1H9)
inactive: vemurafenib -0.039 | [1] 0.008 | barasertib 0.009 | [2] 0.012 | volasertib -0.033 | [3] -0.014 | [4] 0.035 | [5] -0.045 | saracatinib -0.016 | sotrastaurin 0.019 | alvocidib -0.014 | Tubastatin A 0.035 | [6] -0.018 | defactinib 0.009 | [7] -0.034 | encorafenib 0.02 | [8] -0.013 | alisertib -0.064 | [9] -0.003 | gefitinib -0.043

KIFC1 (UniProt Q9BW19)
inactive: vemurafenib -0.008 | [1] 0.037 | barasertib 0.002 | [2] 0.006 | volasertib -0.084 | [3] -0.031 | [4] -0.045 | [5] -0.031 | saracatinib 0.021 | sotrastaurin 0.071 | alvocidib -0.022 | Tubastatin A -0.15 | [6] -0.013 | defactinib -0.003 | [7] 0.024 | encorafenib -0.03 | [8] 0.14 | alisertib 0.011 | [9] 0.008 | gefitinib -0.01

LAMTOR2 (UniProt Q9Y2Q5)
inactive: vemurafenib -0.018 | [1] -0.001 | barasertib 0.141 | [2] 0.006 | volasertib 0.033 | [3] -0.065 | [4] -0.003 | [5] 0.018 | saracatinib -0.017 | sotrastaurin 0.04 | alvocidib -0.008 | Tubastatin A 0.059 | [6] -0.028 | defactinib 0.008 | [7] 0.057 | encorafenib 0.001 | [8] -0.006 | alisertib 0.057 | [9] -0.045 | gefitinib -0.009

KEL (UniProt P23276)
inactive: vemurafenib 0.01 | [1] 0.003 | barasertib 0.084 | [2] 0.055 | volasertib 0.025 | [3] 0.038 | [4] -0.035 | [5] -0.077 | saracatinib 0.022 | sotrastaurin 0.016 | alvocidib -0.015 | Tubastatin A 0.038 | [6] 0.01 | defactinib -0.01 | [7] 0.021 | encorafenib 0.029 | [8] -0.05 | alisertib -0.108 | [9] 0.075 | gefitinib -0.061

KDSR (UniProt Q06136)
inactive: vemurafenib 0.041 | [1] -0.012 | barasertib 0.036 | [2] 0.017 | volasertib 0.013 | [3] -0.034 | [4] -0.143 | [5] 0.156 | saracatinib 0.036 | sotrastaurin -0.018 | alvocidib -0.021 | Tubastatin A 0.037 | [6] 0.006 | defactinib -0.005 | [7] 0.045 | encorafenib 0.037 | [8] -0.118 | alisertib -0.04 | [9] 0.017 | gefitinib -0.032

KIF23 isoform 2 (UniProt Q02241)
inactive: vemurafenib 0.135 | [1] 0.002 | barasertib 0.05 | [2] 0.05 | volasertib 0.032 | [3] -0.012 | [4] 0.007 | [5] -0.003 | saracatinib -0.002 | sotrastaurin 0.031 | alvocidib -0.015 | Tubastatin A -0.096 | [6] -0.007 | defactinib 0.101 | [7] 0.041 | encorafenib -0.008 | [8] -0.026 | alisertib -0.07 | [9] -0.047 | gefitinib -0.008

KMT2A isoform 3 (UniProt Q03164)
inactive: vemurafenib 0.044 | [1] -0.033 | barasertib 0.042 | [2] -0.035 | volasertib -0.054 | [3] -0.058 | [4] -0.093 | [5] -0.01 | saracatinib -0.069 | sotrastaurin 0.034 | alvocidib -0.073 | Tubastatin A 0.011 | [6] -0.07 | defactinib -0.054 | [7] -0.069 | encorafenib -0.118 | [8] -0.037 | alisertib -0.371 | [9] 0.061 | gefitinib -0.172

KIAA1191 (UniProt Q96A73)
inactive: vemurafenib 0.085 | [1] 0.03 | barasertib 0.013 | [2] 0.136 | volasertib 0.028 | [3] -0.007 | [4] 0.023 | [5] 0.007 | saracatinib 0.01 | sotrastaurin -0.062 | alvocidib -0.013 | Tubastatin A 0.012 | [6] 0.092 | defactinib -0.057 | [7] 0.067 | encorafenib 0.03 | [8] -0.007 | alisertib -0.024 | [9] 0.056 | gefitinib 0.001

KMT2D isoform 3 (UniProt O14686)
inactive: vemurafenib 0.012 | [1] 0.028 | barasertib 0.024 | [2] -0.014 | volasertib -0.021 | [3] -0.008 | [4] 0.006 | [5] -0.017 | saracatinib 0.055 | sotrastaurin 0.015 | alvocidib -0.052 | Tubastatin A -0.009 | [6] -0.004 | defactinib 0.023 | [7] 0.012 | encorafenib 0.016 | [8] 0.027 | alisertib -0.019 | [9] -0.011 | gefitinib -0.006

KNTC1 (UniProt P50748)
inactive: vemurafenib -0.005 | [1] 0.004 | barasertib 0.028 | [2] -0.011 | volasertib -0.06 | [3] 0.014 | [4] -0.036 | [5] 0.008 | saracatinib 0.006 | sotrastaurin 0.049 | alvocidib -0.012 | Tubastatin A -0.05 | [6] 0.006 | defactinib 0.014 | [7] -0.053 | encorafenib 0.028 | [8] 0.004 | alisertib 0.024 | [9] 0.002 | gefitinib 0.028

KDM6A (UniProt O15550)
inactive: vemurafenib -0.045 | [1] 0.006 | barasertib 0.017 | [2] 0.035 | volasertib -0.036 | [3] -0.017 | [4] 0.089 | [5] 0.067 | saracatinib 0.029 | sotrastaurin -0.01 | alvocidib -0.057 | Tubastatin A -0.057 | [6] 0.041 | defactinib -0.048 | [7] 0.006 | encorafenib 0.054 | [8] 0.018 | alisertib -0.025 | [9] -0.005 | gefitinib -0.011

Copied from the listing (two entries):
KIAA1324L (UniProt A8MWY0)
inactive: vemurafenib 0.013 | [1] 0.009 | barasertib 0 | [2] 0.086 | volasertib 0.007 | [3] -0.059 | [4] 1.11 | [5] 0.065 | saracatinib -0.025 | sotrastaurin 0.063 | alvocidib 0.018 | Tubastatin A 0.041 | [6] 0.027 | defactinib 0.07 | [7] -0.018 | encorafenib 0.042 | [8] -0.047 | alisertib -0.059 | [9] 0.001 | gefitinib 0.045

KLHL41 (UniProt O60662)
inactive: vemurafenib -0.115 | [1] -0.015 | barasertib 0.06 | [2] -0.085 | volasertib 0.05 | [3] -0.224 | [4] -0.382 | [5] 0.181 | saracatinib 0.105 | sotrastaurin -0.107 | alvocidib -0.221 | Tubastatin A 0.044 | [6] 0.058 | defactinib 0.15 | [7] 0.295 | encorafenib -0.05 | [8] -0.041 | alisertib 0.193 | [9] -0.082 | gefitinib 0.163

Further records

LAMTOR5 (UniProt O43504)
inactive: vemurafenib -0.066 | [1] 0.029 | barasertib 0.124 | [2] 0.013 | volasertib 0.025 | [3] -0.007 | [4] 0.032 | [5] -0.187 | saracatinib 0.091 | sotrastaurin 0.038 | alvocidib 0.007 | Tubastatin A 0.099 | [6] 0.066 | defactinib 0.088 | [7] 0.096 | encorafenib 0.053 | [8] -0.079 | alisertib 0.045 | [9] -0.008 | gefitinib -0.195
